Measured values taken from patent US20160157479A1, “ANTIFUNGAL COMPOSITION AND METHOD” (OMEX INTERNATIONAL LIMITED, priority 2013, published 2016).

Tested on: cabbage leaf discs
Test: Rain-fastness study on cabbage leaf discs

SMILES: COc1cc(C=O)ccc1O [0.1% Vanillin Technical in water, 4-Hydroxy-3-methoxybenzaldehyde]
- % vanillin retained on leaf after 1 h (0.1% vanillin, washed with 10 mL water 1 h after application): 25.7%
- % vanillin retained on leaf after 2 h (0.1% vanillin, washed with 10 mL water 2 h after application): 47.3%
- % vanillin retained on leaf after 4 h (0.1% vanillin, washed with 10 mL water 4 h after application): 37.0%
- % vanillin retained on leaf after 6 h (0.1% vanillin, washed with 10 mL water 6 h after application): 47.6%
- % vanillin retained on leaf after 24 h (0.1% vanillin, washed with 10 mL water 24 h after application): 39.4%
- Active ingredient washed off by simulated rain (deposit allowed to dry for 24 hours): approximately 60%
